For 1 substance, binding results are on record in paper PMC5868845.

Sequences of proteins named here, by UniProt entry; tags and fusion partners are left off.
UniProt Q5SNZ0: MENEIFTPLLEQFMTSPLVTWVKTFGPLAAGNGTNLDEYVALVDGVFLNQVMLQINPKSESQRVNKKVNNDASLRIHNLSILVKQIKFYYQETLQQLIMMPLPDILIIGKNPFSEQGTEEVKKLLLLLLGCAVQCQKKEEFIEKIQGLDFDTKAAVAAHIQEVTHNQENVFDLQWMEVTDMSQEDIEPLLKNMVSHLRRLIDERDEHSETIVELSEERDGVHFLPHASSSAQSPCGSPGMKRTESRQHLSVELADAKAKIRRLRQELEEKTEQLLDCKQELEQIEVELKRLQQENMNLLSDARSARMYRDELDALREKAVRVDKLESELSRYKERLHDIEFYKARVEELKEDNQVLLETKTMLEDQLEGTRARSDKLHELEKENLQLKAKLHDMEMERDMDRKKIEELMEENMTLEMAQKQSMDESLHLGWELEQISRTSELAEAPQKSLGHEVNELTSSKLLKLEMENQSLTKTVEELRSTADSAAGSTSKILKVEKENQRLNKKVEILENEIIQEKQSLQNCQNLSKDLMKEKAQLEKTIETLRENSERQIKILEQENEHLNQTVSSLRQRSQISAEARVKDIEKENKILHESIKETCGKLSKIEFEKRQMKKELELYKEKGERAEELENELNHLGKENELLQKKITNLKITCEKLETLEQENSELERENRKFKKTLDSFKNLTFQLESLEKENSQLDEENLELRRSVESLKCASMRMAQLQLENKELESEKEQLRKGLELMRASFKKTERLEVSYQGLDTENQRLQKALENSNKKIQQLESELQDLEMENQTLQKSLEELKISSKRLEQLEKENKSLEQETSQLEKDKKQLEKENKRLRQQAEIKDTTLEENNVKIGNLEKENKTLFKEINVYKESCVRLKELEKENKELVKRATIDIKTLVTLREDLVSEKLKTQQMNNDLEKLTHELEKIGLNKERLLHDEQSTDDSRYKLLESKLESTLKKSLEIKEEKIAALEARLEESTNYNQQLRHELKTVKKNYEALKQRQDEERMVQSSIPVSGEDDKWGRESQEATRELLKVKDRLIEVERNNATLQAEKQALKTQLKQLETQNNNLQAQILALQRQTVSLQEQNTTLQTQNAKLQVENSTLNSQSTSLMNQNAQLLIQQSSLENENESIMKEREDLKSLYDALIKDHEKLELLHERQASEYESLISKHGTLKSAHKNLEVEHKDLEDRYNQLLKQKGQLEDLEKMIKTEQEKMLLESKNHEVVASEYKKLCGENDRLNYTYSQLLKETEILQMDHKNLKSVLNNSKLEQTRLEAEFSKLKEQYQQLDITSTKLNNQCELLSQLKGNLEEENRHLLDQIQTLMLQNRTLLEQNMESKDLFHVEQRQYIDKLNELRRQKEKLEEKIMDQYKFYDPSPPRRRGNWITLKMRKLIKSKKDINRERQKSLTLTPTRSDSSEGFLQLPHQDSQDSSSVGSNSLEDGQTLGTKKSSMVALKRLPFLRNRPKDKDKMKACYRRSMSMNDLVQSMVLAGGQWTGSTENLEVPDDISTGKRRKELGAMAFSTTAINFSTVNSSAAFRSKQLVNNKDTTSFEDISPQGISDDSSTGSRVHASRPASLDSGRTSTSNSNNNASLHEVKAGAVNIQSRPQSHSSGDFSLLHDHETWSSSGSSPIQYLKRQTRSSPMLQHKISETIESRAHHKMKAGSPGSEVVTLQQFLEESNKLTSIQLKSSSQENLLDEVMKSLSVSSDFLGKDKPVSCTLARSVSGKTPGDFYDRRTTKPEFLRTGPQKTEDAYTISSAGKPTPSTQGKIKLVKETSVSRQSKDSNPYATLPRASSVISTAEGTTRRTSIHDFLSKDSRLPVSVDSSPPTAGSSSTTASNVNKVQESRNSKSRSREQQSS
UniProt P10852: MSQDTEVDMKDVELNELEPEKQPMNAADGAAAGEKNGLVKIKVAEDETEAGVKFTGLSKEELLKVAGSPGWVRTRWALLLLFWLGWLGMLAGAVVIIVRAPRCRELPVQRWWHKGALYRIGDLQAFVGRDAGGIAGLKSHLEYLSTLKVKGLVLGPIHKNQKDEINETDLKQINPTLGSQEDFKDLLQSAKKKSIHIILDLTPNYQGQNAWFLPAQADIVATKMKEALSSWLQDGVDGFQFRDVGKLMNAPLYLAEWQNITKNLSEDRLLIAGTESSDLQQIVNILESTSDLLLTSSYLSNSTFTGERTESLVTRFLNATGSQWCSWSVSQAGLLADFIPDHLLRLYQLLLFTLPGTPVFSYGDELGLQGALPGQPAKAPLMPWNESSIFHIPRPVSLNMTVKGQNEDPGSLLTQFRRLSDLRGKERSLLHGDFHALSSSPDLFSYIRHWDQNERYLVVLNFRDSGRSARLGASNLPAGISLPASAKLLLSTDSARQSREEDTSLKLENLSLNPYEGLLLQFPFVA

These are yes or no findings as the source states them, for the method shown. Binding seen in cells or lysates may run through a third protein. These calls come from enrichment with a bait or labelling near it, and not all partners need be listed.

The assay has as its target girders of actin filaments (Girdin), mouse brain (mouse (endogenous in brain)) (UniProt Q5SNZ0). Briefly: affinity purification with mass spectrometry; anti-Girdin antibody or normal IgG cross-linked (DSS) to protein G beads, incubated overnight at 4°C with precleared mouse whole brain lysate (20 mM Tris-HCl, 120 mM NaCl, 0.8% Triton X-100, 1 mM EDTA, pH 7.4); acidic elution; shotgun tandem mass spectrometry.

With “4F2 heavy chain (4F2hc), mouse brain (from UniProt P10852 1-526)”, the binding entry is on record as “binds”.
